Experimental data: PubChem BioAssay AID1259405 (NCATS, 2018)
Screen: 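Mouse-designed siRNAs used to find CHO productivity engineering targets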 (primary screen). Cells: Chinese hamster CHO-K1 ovary cells with stable secreted eGFP expression. Reagent: single siRNA against mouse genes, 0.8 pmol siRNA per well (2 µl of 400 nM stock). Duration: 3 days. Measured: 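Percent of the per-plate non-targeting control median for intracellular GFP per well by laser scanning cytometry and for cell viability by ATP luminescence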. Scale: GFP, % of control: higher = more GFP per well, higher productivity; viability (ATP), % of control: higher = more viable cells (more ATP). Rule for the call: 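Called active when intracellular GFP, relative to negative control, is at or above 120%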.
Here is one part, drawn at random, of about 50,000 reagents. Of all reagents, about 4,000 (8%) got an active call. 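Mouse siRNA library applied to hamster cells; one well for each siRNA.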 The numbers tell different reagents against one gene apart.

With knock-down of Bmal1 #1, the record shows GFP, % of control 112; viability (ATP), % of control 121; inactive.
For Bmal1 #2 the deposit lists GFP, % of control 50; viability (ATP), % of control 68.3; inactive.
Silencing of Bmal1 #3 gave: GFP, % of control 162; viability (ATP), % of control 111; active.
Hoxd9 #1 showed GFP, % of control 82.8; viability (ATP), % of control 100; inactive.
For Hoxd9 #2 the deposit lists GFP, % of control 84.4; viability (ATP), % of control 95.7; inactive.
Hoxd9 #3 gave GFP, % of control 65.1; viability (ATP), % of control 95.3; inactive.
Pde7b #1 gave GFP, % of control 62.5; viability (ATP), % of control 58.9; inactive.
Against Pde7b #2, the values are GFP, % of control 85; viability (ATP), % of control 64.5; inactive.
After knock-down of Pde7b #3 the results were GFP, % of control 121; viability (ATP), % of control 109; active.
Against Ankrd49 #1, the entry reads GFP, % of control 47.1; viability (ATP), % of control 85; inactive.
Depletion of Ankrd49 #2 came out at: GFP, % of control 73.5; viability (ATP), % of control 82.9; inactive.
Knock-down of Ankrd49 #3 gave: GFP, % of control 74.7; viability (ATP), % of control 94; inactive.

2 entries from above, set out differently.
| Gene | siRNA no. | GFP, % of control | viability (ATP), % of control | outcome |
| --- | --- | --- | --- | --- |
| Ankrd49 | 2 | 73.5 | 82.9 | inactive |
| Ankrd49 | 3 | 74.7 | 94 | inactive |

The list goes on:
After knock-down of Gnb4 #1, the record shows GFP, % of control 81.6; viability (ATP), % of control 111; inactive.
For Gnb4 #2, the values are GFP, % of control 78.7; viability (ATP), % of control 77.9; inactive.
Against Gnb4 #3, the entry reads GFP, % of control 79.9; viability (ATP), % of control 72.6; inactive.
Or8b44 #1 scored GFP, % of control 87.2; viability (ATP), % of control 78.8; inactive.
After knock-down of Or8b44 #2, the record shows GFP, % of control 54.3; viability (ATP), % of control 30.1; inactive.
Knock-down of Or8b44 #3 came out at: GFP, % of control 95.9; viability (ATP), % of control 112; inactive.
